Reference: patent publication US20210115146A1
No constants are given. Whether binding was seen depends on the method and setting.

How the values were obtained:
Experiment in all cases: ELISA, antigen coated at 2 µg/mL, anti-cMyc-HRP detection
[1] = molecular target: OX40.his
[2] = molecular target: CD22.his
[3] = molecular target: CD147
[4] = molecular target: Factor Eight
[5] = molecular target: CTLA4.his
[6] = molecular target: CD40
[7] = molecular target: CD3.his
[8] = molecular target: PD-1.his
[9] = molecular target: VEGF.his
[10] = molecular target: FGFR.his

Measured: binding

B1: W5626-2C2-z22 (VHH) (VHH, not shown: small tags and cut ends)
VHH: EVQLVESGGGLVQPGGSLRLSCAASGRTHSNYVMGWFRQAPGQEREFVAGISRTYGNTYYRDSVEGRFTISRDNSKNTLYLQMNSLRAEDTAVYYCAADPTRSEVILTTSHRYVYWGQGTLVTVSS
no binding (tested: 10 µg/ml): all assays above

B2: W5626-2C10-z5 (VHH) (VHH, not shown: small tags and cut ends)
VHH: AVQLVESGGGLVQPGGSLTLSCAASGRTFSSYAMGWFRQAPGKEREFVAADRWSGGNTRYADSVKGRFTISRDNAKNTLYLQMNSLRAEDTAVYYCAATYLSSDYEWGVPPKAYDYDYWGQGTLVTVSS
no binding (tested: 10 µg/ml): all assays above
